Source: PubChem BioAssay AID504764 (Drosophila RNAi Screening Center, 2011)
In all, the deposit lists about 22,000 reagents; below is an unselected part of those with a known target gene and a result. Over the whole deposit, 403 (1.9%) were called active. 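Unnormalised raw counts per well; ratio z-scores behind the hit calls and whether each hit raises or lowers signal are not deposited.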 Unmarked entries are inactive. No sequences are given here. Not given: the amount of reagent.

Purpose: 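Genome-wide screen for regulators of Notch-driven gene expression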 (primary screen)
Cells: Drosophila Kc167 cells
Knock-down reagent: long dsRNA against Drosophila genes
Time to read-out: about 5 days (4 days dsRNA, then 24 h after transfection)
Conditions: transfection of constitutively active membrane-tethered Notch lacking the extracellular domain, read 24 h later
Detection: 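Light from a Notch-responsive E(spl)m3 luciferase reporter under active Notch, with control-promoter and no-Notch reporter wells to normalise; raw counts from paired wells a and b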
Direction: induced reporter light, run 1, well a and induced reporter light, run 1, well b: higher = more light from the Notch target reporter with active Notch; control promoter light, run 1, well a and control promoter light, run 1, well b: higher = more light from the viral control promoter (cell number, transfection, viability); uninduced reporter light, run 1, well a: higher = more light from the Notch target reporter without active Notch
Rule for the call: 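Wells with low control signal or poorly matching duplicates excluded; duplicates averaged; per source plate, z beyond ±2 for induced/control log2 ratio or beyond ±1.8 for induced/uninduced marks a hit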
Calls: active = modifier hit (raised or lowered Notch signal); inactive = not a hit

CG6733 [DRSC16103] gave induced reporter light, run 1, well a = 1.20e5; induced reporter light, run 1, well b = 1.11e5; control promoter light, run 1, well a = 1.47e5; control promoter light, run 1, well b = 1.67e5; uninduced reporter light, run 1, well a = 13405.
Depletion of CG42700 [DRSC06292] came out at: induced reporter light, run 1, well a = 9380; induced reporter light, run 1, well b = 7328; control promoter light, run 1, well a = 12675; control promoter light, run 1, well b = 8655; uninduced reporter light, run 1, well a = 2340.
Depletion of CG42700 [DRSC06293] resulted in: induced reporter light, run 1, well a = 1.13e5; induced reporter light, run 1, well b = 1.10e5; control promoter light, run 1, well a = 1.01e5; control promoter light, run 1, well b = 1.11e5; uninduced reporter light, run 1, well a = 9040.
Against ND-13A [DRSC03110], the entry reads induced reporter light, run 1, well a = 1.01e5; induced reporter light, run 1, well b = 1.08e5; control promoter light, run 1, well a = 1.64e5; control promoter light, run 1, well b = 1.23e5; uninduced reporter light, run 1, well a = 9035.
Against cas [DRSC12373], the values are induced reporter light, run 1, well a = 1.08e5; induced reporter light, run 1, well b = 1.32e5; control promoter light, run 1, well a = 1.17e5; control promoter light, run 1, well b = 1.07e5; uninduced reporter light, run 1, well a = 8585.
Against ppk31 [DRSC13811], the values are induced reporter light, run 1, well a = 2.63e5; induced reporter light, run 1, well b = 1.78e5; control promoter light, run 1, well a = 2.23e5; control promoter light, run 1, well b = 1.88e5; uninduced reporter light, run 1, well a = 18580.

2 of these entries, set out differently.
CG42700 [DRSC06293]
- induced reporter light, run 1, well a: 1.13e5
- induced reporter light, run 1, well b: 1.10e5
- control promoter light, run 1, well a: 1.01e5
- control promoter light, run 1, well b: 1.11e5
- uninduced reporter light, run 1, well a: 9040

ND-13A [DRSC03110]
- induced reporter light, run 1, well a: 1.01e5
- induced reporter light, run 1, well b: 1.08e5
- control promoter light, run 1, well a: 1.64e5
- control promoter light, run 1, well b: 1.23e5
- uninduced reporter light, run 1, well a: 9035

More records follow:
Dyrk2 [DRSC03610] scored induced reporter light, run 1, well a = 2.15e5; induced reporter light, run 1, well b = 2.45e5; control promoter light, run 1, well a = 2.11e5; control promoter light, run 1, well b = 1.75e5; uninduced reporter light, run 1, well a = 21560.
After knock-down of PK2-R2 [DRSC16448], the record shows induced reporter light, run 1, well a = 2.33e5; induced reporter light, run 1, well b = 2.45e5; control promoter light, run 1, well a = 2.64e5; control promoter light, run 1, well b = 2.72e5; uninduced reporter light, run 1, well a = 22215.
With knock-down of CG9330 [DRSC11066], the record shows induced reporter light, run 1, well a = 1.62e5; induced reporter light, run 1, well b = 1.41e5; control promoter light, run 1, well a = 1.26e5; control promoter light, run 1, well b = 97655; uninduced reporter light, run 1, well a = 7485.
Knock-down of CrebB [DRSC20232] gave: induced reporter light, run 1, well a = 57575; induced reporter light, run 1, well b = 43410; control promoter light, run 1, well a = 62390; control promoter light, run 1, well b = 48965; uninduced reporter light, run 1, well a = 8105.
Against ken [DRSC04696], the entry reads induced reporter light, run 1, well a = 69185; induced reporter light, run 1, well b = 58720; control promoter light, run 1, well a = 16725; control promoter light, run 1, well b = 16820; uninduced reporter light, run 1, well a = 6792.
Karybeta3 [DRSC12355] showed induced reporter light, run 1, well a = 1.38e5; induced reporter light, run 1, well b = 1.40e5; control promoter light, run 1, well a = 65395; control promoter light, run 1, well b = 79270; uninduced reporter light, run 1, well a = 5620.
